Experimental findings from article PMC7374751 are described below.

The chains behind the UniProt entries cited, without tags or fusion partners. Where a name states a change or a piece, a line headed by the entry shows the natural chain unless it says otherwise. Residues count along the entry.
UniProt Q07954: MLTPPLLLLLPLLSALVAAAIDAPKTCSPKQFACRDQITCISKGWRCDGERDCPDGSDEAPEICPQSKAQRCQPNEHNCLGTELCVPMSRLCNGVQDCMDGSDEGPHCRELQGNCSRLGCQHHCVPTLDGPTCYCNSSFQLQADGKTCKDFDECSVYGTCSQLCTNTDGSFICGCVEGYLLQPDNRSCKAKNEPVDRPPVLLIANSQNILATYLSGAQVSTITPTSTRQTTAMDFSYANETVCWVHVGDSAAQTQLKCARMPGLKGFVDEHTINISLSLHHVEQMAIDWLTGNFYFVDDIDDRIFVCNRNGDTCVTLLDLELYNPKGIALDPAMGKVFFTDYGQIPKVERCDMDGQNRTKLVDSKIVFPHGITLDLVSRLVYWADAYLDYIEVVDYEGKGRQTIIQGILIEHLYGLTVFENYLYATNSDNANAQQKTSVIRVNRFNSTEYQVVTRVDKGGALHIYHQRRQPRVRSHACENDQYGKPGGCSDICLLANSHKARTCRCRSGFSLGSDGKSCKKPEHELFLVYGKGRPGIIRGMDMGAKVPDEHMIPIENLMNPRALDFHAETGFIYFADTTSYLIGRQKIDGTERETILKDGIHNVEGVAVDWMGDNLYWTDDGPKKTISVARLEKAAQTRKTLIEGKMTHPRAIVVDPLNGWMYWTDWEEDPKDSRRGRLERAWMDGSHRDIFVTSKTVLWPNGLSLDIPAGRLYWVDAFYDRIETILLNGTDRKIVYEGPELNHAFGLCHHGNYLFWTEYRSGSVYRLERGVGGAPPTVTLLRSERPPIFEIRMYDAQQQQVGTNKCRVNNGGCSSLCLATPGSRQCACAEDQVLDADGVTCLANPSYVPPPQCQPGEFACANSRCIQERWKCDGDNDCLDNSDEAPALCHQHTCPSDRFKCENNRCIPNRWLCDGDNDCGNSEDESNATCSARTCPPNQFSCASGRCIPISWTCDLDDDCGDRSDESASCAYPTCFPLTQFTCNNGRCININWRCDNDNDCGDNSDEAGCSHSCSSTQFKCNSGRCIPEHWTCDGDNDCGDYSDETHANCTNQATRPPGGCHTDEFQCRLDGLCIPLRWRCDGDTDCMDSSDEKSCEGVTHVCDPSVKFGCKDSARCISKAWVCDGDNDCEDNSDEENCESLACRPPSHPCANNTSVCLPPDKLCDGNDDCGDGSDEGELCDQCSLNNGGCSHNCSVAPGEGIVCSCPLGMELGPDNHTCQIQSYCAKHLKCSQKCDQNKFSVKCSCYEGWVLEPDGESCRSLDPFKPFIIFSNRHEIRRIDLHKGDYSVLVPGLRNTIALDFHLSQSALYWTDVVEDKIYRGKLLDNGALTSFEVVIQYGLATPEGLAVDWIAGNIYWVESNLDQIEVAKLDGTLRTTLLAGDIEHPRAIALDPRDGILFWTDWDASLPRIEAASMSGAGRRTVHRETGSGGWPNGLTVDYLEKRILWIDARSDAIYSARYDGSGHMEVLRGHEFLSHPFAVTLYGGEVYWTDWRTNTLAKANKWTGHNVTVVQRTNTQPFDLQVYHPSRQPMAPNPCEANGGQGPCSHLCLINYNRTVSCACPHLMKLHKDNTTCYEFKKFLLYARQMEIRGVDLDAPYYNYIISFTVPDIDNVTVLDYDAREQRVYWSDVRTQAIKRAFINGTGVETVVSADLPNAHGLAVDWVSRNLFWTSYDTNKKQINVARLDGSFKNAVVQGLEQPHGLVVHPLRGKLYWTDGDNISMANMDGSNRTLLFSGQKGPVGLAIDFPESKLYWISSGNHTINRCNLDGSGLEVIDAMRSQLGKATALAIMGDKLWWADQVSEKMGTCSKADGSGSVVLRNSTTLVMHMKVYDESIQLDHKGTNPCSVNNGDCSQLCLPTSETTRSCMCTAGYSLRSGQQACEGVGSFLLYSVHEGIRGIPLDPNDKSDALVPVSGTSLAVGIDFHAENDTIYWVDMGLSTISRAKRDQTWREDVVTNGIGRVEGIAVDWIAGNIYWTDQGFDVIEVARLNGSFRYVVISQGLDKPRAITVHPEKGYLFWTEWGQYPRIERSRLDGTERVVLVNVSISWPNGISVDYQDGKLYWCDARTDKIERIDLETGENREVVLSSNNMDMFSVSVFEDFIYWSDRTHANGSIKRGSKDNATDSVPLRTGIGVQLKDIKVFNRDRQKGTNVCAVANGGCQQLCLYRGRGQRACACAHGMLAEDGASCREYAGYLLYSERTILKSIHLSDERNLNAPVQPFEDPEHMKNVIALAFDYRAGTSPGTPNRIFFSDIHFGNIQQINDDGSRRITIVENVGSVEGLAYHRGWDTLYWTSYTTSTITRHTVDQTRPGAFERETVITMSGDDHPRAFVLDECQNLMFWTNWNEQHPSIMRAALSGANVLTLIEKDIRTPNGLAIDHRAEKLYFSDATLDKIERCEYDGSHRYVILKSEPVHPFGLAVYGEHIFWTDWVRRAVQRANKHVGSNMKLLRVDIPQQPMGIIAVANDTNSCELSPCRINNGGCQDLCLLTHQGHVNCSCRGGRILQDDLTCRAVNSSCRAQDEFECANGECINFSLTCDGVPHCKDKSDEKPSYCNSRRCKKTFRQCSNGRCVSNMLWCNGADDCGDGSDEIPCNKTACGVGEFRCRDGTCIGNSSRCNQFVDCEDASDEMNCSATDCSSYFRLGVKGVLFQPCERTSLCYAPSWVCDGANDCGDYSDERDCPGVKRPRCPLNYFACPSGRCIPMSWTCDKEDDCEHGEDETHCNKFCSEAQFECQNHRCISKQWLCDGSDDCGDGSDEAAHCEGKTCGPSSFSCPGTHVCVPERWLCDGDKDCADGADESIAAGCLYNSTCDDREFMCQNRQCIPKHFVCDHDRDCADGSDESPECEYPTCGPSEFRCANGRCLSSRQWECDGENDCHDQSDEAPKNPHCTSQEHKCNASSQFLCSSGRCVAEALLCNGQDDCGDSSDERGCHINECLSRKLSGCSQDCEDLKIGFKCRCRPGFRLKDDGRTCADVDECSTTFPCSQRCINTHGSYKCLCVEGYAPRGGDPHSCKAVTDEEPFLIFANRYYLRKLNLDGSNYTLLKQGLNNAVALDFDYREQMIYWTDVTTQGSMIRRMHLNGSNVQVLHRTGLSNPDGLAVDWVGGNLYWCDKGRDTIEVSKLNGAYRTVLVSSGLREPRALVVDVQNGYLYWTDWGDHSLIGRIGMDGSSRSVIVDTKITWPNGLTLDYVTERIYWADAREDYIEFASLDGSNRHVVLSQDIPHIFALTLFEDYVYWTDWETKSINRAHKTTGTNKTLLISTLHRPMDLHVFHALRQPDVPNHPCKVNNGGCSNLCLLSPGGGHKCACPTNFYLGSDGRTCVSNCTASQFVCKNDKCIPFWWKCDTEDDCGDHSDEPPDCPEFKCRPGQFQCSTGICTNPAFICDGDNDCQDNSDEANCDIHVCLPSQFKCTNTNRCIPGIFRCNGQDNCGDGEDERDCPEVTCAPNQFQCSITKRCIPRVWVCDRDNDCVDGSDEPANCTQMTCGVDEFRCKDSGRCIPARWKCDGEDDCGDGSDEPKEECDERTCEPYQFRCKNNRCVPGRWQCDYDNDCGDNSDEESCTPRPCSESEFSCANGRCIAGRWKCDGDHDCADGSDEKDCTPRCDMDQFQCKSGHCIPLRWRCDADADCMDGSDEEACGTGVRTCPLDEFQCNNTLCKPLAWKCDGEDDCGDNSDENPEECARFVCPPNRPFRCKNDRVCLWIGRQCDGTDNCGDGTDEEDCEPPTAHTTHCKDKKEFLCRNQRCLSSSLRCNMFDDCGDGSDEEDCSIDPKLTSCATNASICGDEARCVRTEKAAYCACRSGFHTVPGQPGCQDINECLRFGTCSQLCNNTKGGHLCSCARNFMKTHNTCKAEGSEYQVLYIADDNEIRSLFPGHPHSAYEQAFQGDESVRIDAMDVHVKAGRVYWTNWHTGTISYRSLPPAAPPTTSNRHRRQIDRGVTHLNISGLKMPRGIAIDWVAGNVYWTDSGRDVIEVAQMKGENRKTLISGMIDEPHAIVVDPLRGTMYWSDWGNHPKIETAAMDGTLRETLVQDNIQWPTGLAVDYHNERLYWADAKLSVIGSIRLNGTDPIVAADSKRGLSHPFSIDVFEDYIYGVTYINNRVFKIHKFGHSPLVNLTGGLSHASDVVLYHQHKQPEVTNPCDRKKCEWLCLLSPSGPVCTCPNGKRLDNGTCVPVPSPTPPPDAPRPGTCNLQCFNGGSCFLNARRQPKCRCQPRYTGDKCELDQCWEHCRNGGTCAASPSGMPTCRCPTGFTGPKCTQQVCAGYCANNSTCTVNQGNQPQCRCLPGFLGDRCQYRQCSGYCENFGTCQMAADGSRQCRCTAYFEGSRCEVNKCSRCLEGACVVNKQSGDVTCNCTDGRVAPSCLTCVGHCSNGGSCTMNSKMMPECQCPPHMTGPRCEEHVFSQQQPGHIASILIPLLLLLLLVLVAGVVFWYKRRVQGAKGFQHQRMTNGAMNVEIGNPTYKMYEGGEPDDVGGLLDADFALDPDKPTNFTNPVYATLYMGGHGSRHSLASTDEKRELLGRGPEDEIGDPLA
UniProt P02769, residues 25-607: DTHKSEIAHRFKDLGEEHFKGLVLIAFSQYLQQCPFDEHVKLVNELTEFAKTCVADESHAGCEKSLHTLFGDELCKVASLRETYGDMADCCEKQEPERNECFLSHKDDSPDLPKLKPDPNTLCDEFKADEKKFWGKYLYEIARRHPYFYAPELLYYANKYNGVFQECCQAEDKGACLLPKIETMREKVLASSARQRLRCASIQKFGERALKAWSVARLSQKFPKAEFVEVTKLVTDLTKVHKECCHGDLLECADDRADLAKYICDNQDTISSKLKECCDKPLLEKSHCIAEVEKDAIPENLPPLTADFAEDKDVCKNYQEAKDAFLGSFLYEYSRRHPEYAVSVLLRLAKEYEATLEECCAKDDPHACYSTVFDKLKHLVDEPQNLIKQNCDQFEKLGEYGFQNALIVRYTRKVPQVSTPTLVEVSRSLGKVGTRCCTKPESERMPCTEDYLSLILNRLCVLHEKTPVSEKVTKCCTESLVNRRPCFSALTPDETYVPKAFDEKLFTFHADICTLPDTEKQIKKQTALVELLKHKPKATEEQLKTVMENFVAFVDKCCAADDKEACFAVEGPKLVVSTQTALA

These are yes or no findings as the source states them, for the method shown.

The experiment deals with low-density lipoprotein receptor-related protein 1 (LRP-1) (UniProt Q07954). The experiment in a line: SPR; BIAcore T200; LRP-1 immobilised on a CM5 chip by amine coupling (3000 RU); 25 °C; 150 mM NaCl, 10 mM CaCl2, 50 mM Tris-HCl, 0.01% Tween-20, pH 7.5; 30 μl/min; ligands or pre-formed complexes injected; one-site binding model; triplicate; both purified.

Turning to BSA (from UniProt P02769 25-607), the binding result was “no binding (tested: up to 2 μM)”.
